In PubChem BioAssay AID330 (DTP/NCI, 2004) one finds T/C and survivor count data, which are given here for 17 compounds.

In the experiment the test system is P388 leukemia ip, CD2F1 mice, survival T/C. As to the kind of experiment: NCI In Vivo Anticancer Drug Screen. Data for tumor model P388 Leukemia (intraperitoneal) in CD2F1 (CDF1) mice. To be noted: T/C endpoint: median survival time, higher T/C = longer survival.
The mark [1] stands for this setting: dose: 25.0 mg/kg/injection, schedule: Q01DX009 (ip), vehicle: saline with Tween-80.
The mark [2] stands for this setting: dose: 25.0 mg/kg/injection, schedule: Q01DX009 (ip), vehicle: water.
Where [3] appears, read: dose: 50.0 mg/kg/injection, schedule: Q01DX009 (ip), vehicle: saline with Tween-80.
The mark [4] stands for this setting: dose: 50.0 mg/kg/injection, schedule: Q01DX009 (ip), vehicle: water.
Where [5] appears, read: dose: 100.0 mg/kg/injection, schedule: Q01DX009 (ip), vehicle: other.
[6] abbreviates: dose: 100.0 mg/kg/injection, schedule: Q01DX009 (ip), vehicle: water.
The mark [7] stands for this setting: dose: 200.0 mg/kg/injection, schedule: Q01DX009 (ip), vehicle: Klucel (hydroxypropylcellulose) (HPC).
Setting [8] is: dose: 100.0 mg/kg/injection, schedule: Q01DX009 (ip), vehicle: saline with Tween-80.
The mark [9] stands for this setting: dose: 200.0 mg/kg/injection, schedule: Q01DX009 (ip), vehicle: saline with Tween-80.
The mark [10] stands for this setting: dose: 100.0 mg/kg/injection, schedule: Q01DX005 (ip), vehicle: Klucel (hydroxypropylcellulose) (HPC).
Where [11] appears, read: dose: 200.0 mg/kg/injection, schedule: Q01DX005 (ip), vehicle: Klucel (hydroxypropylcellulose) (HPC).

The structures appear in SMILES notation. The list is a part of this screen's results and no random one: it gathers tests that were run many times, whatever their T/C, doses with no T/C, and many T/C values between a quarter and a half above the control. Further doses and runs are listed elsewhere. T/C gives the treated animals as a percentage of the vehicle group. Some doses have a count of surviving animals in place of a T/C: the source files T/C as zero there, which appears to mark a toxic dose or a test without result, not a measured value. Some survivor counts are full or nearly so, which does not show that the dose was tolerated: survival well below the control is almost never listed, so the zero probably covers shortened survival too. Counts of survivors are from the toxicity check (mostly the fifth day) where no day follows; animals may have died later. Schedules are NCI's codes, taken here to give the interval after Q, in days (D) or hours (H), and the number of doses after X. Some entries hold several experiments; the results are listed from low to high. Where survival is the endpoint, the PubChem record calls one and a half times the control and up active, and a quarter to a half above the control has no call in these data; cut-offs in other NCI protocols can differ. Some T/C values carry the count of animals alive at the toxicity check (mostly the fifth day); without a count, all were alive then. Additions like (4×) count equal records among those shown.

Turning to `Cc1ccc(S(=O)(=O)N/N=C/C(=O)O)cc1`, the T/C runs as follows: (dose: 6.25 mg/kg/injection, schedule: Q01DX009 (ip), vehicle: Klucel (hydroxypropylcellulose) (HPC)) 126 % of control; (dose: 12.5 mg/kg/injection, schedule: Q01DX009 (ip), vehicle: distilled water + Tween-80) 115, 122, 133, 137, 153 % of control; (dose: 12.5 mg/kg/injection, schedule: Q01DX009 (ip), vehicle: other) 117, 124, 128 (2×), 131, 132, 134, 136, 137, 138, 139 (2×), 147 % of control; (dose: 12.5 mg/kg/injection, schedule: Q01DX009 (ip), vehicle: water) 117, 125, 141 (2×), 145, 150 % of control; (dose: 25.0 mg/kg/injection, schedule: Q01DX009 (ip), vehicle: Klucel (hydroxypropylcellulose) (HPC)) 131, 133, 140 % of control; (dose: 25.0 mg/kg/injection, schedule: Q01DX009 (ip), vehicle: distilled water + Tween-80) 131, 133, 140, 142, 171 % of control. The T/C is 135 (2×), 137 (2×), 138, 139, 141, 142, 146, 149, 151, 155, 163 % of control (dose: 25.0 mg/kg/injection, schedule: Q01DX009 (ip), vehicle: other); 129 % of control [5 of 6 alive] under setting [1]; 137, 139, 150, 157, 166, 172 % of control under setting [2]; 142 and 145 % of control (dose: 50.0 mg/kg/injection, schedule: Q01DX009 (ip), vehicle: Klucel (hydroxypropylcellulose) (HPC)); 130, 156, 158, 159, 192 % of control (dose: 50.0 mg/kg/injection, schedule: Q01DX009 (ip), vehicle: distilled water + Tween-80); 147, 152 (2×), 153, 157, 158, 159, 163, 171, 175, 179, 180 % of control (2×) (dose: 50.0 mg/kg/injection, schedule: Q01DX009 (ip), vehicle: other). Besides, the T/C is 147 % of control under setting [3]; 143, 145 [5 of 6 alive], 160 [5 of 6 alive], 179 (2×), 184 % of control under setting [4]; 98, 104, 128, 153, 192 % of control (dose: 100.0 mg/kg/injection, schedule: Q01DX009 (ip), vehicle: distilled water + Tween-80); 88, 89, 111 [5 of 6 alive], 149, 209 % of control under setting [5]; 87, 130, 196, 198 % of control under setting [6]. In addition, the survivor count by setting is: under setting [5], 4 of 6, 5 of 6, 6 of 6; under setting [6], 2 of 6 and 5 of 6; under setting [7], 3 of 6, 5 of 6, 6 of 6.
Take `CCOC(=O)c1cc(N)c(C(=O)OCC)cc1N`: under setting [3], the survivor count is 6 of 6.
For the compound `CN(C)c1ccc(N(C)C)c(C(O)(c2ccccc2)c2ccccc2)c1`, the survivor count runs as follows: under setting [8], 6 of 6; under setting [9], 6 of 6.
As for `O=C(O)CCCNC(=O)Cc1ccccc1`, the survivor count (dose: 200.0 mg/kg/injection, schedule: Q01DX005 (ip), vehicle: saline) was 5 of 6.
Turning to `Cn1nc(-c2ccc(Cl)c(Cl)c2)[n+]([O-])c2c(=O)n(C)c(=O)nc1-2`, under setting [1], the T/C is 130 and 134 % of control. Besides, the survivor count was 4 of 6 and 6 of 6 under setting [3]; 1 of 6 under setting [8]; 0 of 6 under setting [9].
Consider `COc1ccc2c(c1)C=C([N+](=O)[O-])C(N1CCOCC1)O2` (stereo not given), for which the survivor count by setting is: under setting [10], 2 of 6; under setting [11], 0 of 6.
In the case of `O=NNc1ncccc1OCc1ccccc1`, the T/C is, setting by setting: (dose: 3.13 mg/kg/injection, schedule: Q01DX009 (ip), vehicle: water) 125 % of control; (dose: 6.25 mg/kg/injection, schedule: Q01DX009 (ip), vehicle: water) 125 and 136 % of control. Moreover, the survivor count under setting [2] was 6 of 6 and the survivor count under setting [4] is 6 of 6.
As to `CCC[CH2][Sn]([CH2]CCC)([N]=C=S)[N]=C=S`, the survivor count runs as follows: (dose: 6.25 mg/kg/injection, schedule: Q01DX009 (ip), vehicle: saline) 4 of 6; (dose: 12.5 mg/kg/injection, schedule: Q01DX009 (ip), vehicle: saline) 1 of 6; (dose: 25.0 mg/kg/injection, schedule: Q01DX009 (ip), vehicle: saline) 0 of 6; (dose: 50.0 mg/kg/injection, schedule: Q01DX009 (ip), vehicle: suspension in saline) 5 of 6; (dose: 100.0 mg/kg/injection, schedule: Q01DX009 (ip), vehicle: suspension in saline) 2 of 6; (dose: 200.0 mg/kg/injection, schedule: Q01DX009 (ip), vehicle: suspension in saline) 0 of 6.
Turning to `CC(C)=CC[P+](CCCCCC[P+](CC=C(C)C)(c1ccccc1)c1ccccc1)(c1ccccc1)c1ccccc1`, the survivor count (dose: 6.25 mg/kg/injection, schedule: Q01DX005 (ip), vehicle: Klucel (hydroxypropylcellulose) (HPC)) was 4 of 6; the survivor count (dose: 12.5 mg/kg/injection, schedule: Q01DX005 (ip), vehicle: Klucel (hydroxypropylcellulose) (HPC)) is reported as 0 of 6; the survivor count (dose: 25.0 mg/kg/injection, schedule: Q01DX005 (ip), vehicle: Klucel (hydroxypropylcellulose) (HPC)) is 0 of 6; the survivor count (dose: 50.0 mg/kg/injection, schedule: Q01DX005 (ip), vehicle: Klucel (hydroxypropylcellulose) (HPC)) is given as 0 of 6; the survivor count under setting [10] is given as 0 of 6; the survivor count under setting [11] was 0 of 6.
With `CN(Cc1ccc(Nc2ccccc2)cc1)C1CCCCC1`, where the note is “dose: 400.0 mg/kg/injection, schedule: Q01DX009 (ip), vehicle: saline + Tween-80 + alcohol”, the survivor count is reported as 5 of 6.
In the case of `N#CC1=C(C#N)C(=O)C(Br)=C(Br)C1=O`, the survivor count (dose: 50.0 mg/kg/injection, schedule: Q01DX005 (ip), vehicle: Klucel + Tween-80) is 3 of 6; the survivor count (dose: 100.0 mg/kg/injection, schedule: Q01DX005 (ip), vehicle: Klucel + Tween-80) is 0 of 6; the survivor count (dose: 200.0 mg/kg/injection, schedule: Q01DX005 (ip), vehicle: Klucel + Tween-80) is 0 of 6.
As for `O=C1C(Cl)=C(N=Nc2c(Cl)c(O)c3ccccc3c2O)C(=O)c2ccccc21`, the T/C (dose: 12.5 mg/kg/injection, schedule: Q01DX010 (ip), vehicle: saline) was 136 % of control.
Consider `S=P(c1ccccc1)(N1CC1)N1CC1`, for which the survivor count by setting is: (dose: 200.0 mg/kg/injection, schedule: Q04DX003 (ip), vehicle: saline with Tween-80) 5 of 6; (dose: 400.0 mg/kg/injection, schedule: Q04DX003 (ip), vehicle: saline with Tween-80) 3 of 6.
With `CCC[n+]1noc(N)n1`, the survivor count (dose: 200.0 mg/kg/injection, schedule: Q01DX009 (ip), vehicle: water) is recorded as 3 of 3 and the survivor count (dose: 400.0 mg/kg/injection, schedule: Q01DX009 (ip), vehicle: water) was 3 of 3.
Consider `O=C1C=CC(=O)C(CC2CCCC2C2=CC(=O)C=CC2=O)=C1` (stereo not given), for which the survivor count is, setting by setting: (dose: 50.0 mg/kg/injection, schedule: Q04DX002 (ip), vehicle: saline with Tween-80) 6 of 6; (dose: 100.0 mg/kg/injection, schedule: Q04DX002 (ip), vehicle: saline with Tween-80) 3 of 6.
As for `S=C(Cl)N1CCN(C(=S)Cl)CC1`, the survivor count by setting is: (dose: 100.0 mg/kg/injection, schedule: Q01DX009 (ip), vehicle: Klucel (hydroxypropylcellulose) (HPC)) 5 of 6; under setting [7], 0 of 6.
For the compound `CN=C(NC#N)NCCSCc1ccc2ccccc2n1`, under “dose: 200.0 mg/kg/injection, schedule: Q01DX005 (ip), vehicle: distilled water + Tween-80 + alcohol”, the survivor count is 0 of 5.
